Some of the results follow.

Sequences of proteins named here, by UniProt entry; tags and fusion partners are left off. A change or cut given only in a name is not applied to a line headed by its entry.
UniProt O60869: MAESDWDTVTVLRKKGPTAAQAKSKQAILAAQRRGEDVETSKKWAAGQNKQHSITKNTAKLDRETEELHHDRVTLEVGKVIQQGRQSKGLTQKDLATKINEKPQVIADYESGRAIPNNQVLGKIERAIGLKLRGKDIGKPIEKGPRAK
UniProt Q14919: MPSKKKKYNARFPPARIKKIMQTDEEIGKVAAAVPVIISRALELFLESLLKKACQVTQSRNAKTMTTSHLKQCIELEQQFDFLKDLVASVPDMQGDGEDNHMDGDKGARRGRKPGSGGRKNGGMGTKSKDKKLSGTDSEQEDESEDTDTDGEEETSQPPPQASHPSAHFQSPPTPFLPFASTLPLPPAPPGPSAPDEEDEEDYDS
UniProt Q96C19: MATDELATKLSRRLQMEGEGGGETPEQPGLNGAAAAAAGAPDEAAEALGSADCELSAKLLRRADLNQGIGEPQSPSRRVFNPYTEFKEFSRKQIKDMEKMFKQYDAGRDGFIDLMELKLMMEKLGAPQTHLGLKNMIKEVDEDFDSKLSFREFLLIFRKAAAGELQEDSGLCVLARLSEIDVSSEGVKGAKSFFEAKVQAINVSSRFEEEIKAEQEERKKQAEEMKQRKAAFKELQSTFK
UniProt Q9H410: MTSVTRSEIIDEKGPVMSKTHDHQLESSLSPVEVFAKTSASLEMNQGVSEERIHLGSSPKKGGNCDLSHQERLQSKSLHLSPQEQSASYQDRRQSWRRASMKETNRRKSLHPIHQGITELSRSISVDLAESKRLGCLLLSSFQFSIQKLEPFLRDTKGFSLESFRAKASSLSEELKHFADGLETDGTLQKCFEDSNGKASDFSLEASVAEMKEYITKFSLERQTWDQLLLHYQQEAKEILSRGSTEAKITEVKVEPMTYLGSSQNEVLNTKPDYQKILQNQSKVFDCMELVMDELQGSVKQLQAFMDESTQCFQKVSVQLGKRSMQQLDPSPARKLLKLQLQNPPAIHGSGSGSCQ
UniProt O43324: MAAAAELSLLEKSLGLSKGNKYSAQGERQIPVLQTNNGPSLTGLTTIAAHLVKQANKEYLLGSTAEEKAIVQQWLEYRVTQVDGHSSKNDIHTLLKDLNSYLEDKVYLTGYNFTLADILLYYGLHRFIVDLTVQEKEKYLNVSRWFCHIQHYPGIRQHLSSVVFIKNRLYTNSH
UniProt Q7RTS9: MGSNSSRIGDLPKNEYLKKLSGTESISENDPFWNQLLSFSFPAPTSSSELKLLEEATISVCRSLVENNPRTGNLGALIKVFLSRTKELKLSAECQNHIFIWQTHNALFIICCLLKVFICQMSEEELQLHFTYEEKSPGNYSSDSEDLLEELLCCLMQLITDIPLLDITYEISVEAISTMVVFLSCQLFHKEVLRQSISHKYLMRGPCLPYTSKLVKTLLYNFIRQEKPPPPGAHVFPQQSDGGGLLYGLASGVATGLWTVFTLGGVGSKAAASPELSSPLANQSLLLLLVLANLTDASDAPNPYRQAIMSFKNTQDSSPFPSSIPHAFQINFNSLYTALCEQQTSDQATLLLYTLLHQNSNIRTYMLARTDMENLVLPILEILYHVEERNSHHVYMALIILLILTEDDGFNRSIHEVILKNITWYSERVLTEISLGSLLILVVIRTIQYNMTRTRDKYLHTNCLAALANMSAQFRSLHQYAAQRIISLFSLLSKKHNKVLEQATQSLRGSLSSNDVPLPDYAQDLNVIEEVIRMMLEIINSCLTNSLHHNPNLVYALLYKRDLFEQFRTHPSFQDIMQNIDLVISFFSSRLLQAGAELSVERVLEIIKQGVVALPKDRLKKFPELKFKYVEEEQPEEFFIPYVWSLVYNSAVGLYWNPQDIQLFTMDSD
UniProt Q15029: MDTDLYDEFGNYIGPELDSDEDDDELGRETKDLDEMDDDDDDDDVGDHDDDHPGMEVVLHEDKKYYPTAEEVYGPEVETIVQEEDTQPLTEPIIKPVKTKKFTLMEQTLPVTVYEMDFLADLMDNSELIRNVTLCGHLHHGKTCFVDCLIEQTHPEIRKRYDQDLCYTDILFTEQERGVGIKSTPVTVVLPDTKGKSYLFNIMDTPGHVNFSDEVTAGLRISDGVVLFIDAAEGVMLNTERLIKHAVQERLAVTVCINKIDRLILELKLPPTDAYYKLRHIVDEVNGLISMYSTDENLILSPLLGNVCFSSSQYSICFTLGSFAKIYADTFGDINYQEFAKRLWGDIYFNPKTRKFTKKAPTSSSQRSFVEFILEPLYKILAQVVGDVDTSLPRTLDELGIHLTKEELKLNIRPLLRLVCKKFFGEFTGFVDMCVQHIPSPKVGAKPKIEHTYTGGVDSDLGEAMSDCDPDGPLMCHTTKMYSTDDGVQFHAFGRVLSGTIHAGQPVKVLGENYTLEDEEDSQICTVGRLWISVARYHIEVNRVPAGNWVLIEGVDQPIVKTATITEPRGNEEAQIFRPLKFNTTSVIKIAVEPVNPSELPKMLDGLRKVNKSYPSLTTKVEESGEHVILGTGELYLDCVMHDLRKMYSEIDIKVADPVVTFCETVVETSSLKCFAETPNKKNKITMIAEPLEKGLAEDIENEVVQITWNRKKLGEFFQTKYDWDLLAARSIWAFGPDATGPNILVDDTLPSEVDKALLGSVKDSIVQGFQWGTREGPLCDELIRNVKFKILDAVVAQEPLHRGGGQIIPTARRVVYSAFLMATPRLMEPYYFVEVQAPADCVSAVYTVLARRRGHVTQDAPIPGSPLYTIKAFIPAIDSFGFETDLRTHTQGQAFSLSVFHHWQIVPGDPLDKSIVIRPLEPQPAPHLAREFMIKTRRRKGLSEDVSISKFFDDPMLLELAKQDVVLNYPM
UniProt Q92611: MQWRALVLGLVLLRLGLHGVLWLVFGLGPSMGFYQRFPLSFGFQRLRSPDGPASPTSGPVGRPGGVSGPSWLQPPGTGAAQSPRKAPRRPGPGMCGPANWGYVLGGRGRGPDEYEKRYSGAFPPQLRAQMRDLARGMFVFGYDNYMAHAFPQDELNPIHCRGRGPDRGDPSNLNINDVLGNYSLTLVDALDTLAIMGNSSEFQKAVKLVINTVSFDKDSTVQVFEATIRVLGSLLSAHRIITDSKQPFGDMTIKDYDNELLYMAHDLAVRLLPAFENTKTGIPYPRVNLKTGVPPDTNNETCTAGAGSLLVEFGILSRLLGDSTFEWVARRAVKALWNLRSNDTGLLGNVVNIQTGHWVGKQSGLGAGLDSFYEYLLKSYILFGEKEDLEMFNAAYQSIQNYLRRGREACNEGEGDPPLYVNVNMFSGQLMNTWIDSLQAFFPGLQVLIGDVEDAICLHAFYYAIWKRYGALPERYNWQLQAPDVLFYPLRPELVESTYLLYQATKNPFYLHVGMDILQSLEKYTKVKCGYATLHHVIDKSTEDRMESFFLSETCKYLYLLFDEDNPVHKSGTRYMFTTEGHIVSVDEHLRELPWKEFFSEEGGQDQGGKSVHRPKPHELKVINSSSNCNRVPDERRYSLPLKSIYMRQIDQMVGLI
UniProt Q9BVC3, whole entry, looked up: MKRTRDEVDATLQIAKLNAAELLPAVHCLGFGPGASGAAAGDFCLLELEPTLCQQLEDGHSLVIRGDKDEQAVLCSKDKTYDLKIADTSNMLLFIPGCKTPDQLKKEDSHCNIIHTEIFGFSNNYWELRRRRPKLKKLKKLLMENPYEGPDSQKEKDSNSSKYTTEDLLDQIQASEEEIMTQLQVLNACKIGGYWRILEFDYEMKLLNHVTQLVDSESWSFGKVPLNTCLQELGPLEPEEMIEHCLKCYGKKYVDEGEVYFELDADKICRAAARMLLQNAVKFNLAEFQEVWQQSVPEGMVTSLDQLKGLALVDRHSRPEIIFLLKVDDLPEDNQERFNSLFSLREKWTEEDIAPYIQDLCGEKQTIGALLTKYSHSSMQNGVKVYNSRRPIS
UniProt P23919: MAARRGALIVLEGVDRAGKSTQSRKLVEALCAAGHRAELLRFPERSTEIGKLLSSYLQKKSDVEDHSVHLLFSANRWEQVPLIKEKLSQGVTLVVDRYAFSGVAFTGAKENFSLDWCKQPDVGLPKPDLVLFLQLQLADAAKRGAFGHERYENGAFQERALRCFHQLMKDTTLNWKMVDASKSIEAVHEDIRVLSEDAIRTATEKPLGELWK
UniProt Q13011: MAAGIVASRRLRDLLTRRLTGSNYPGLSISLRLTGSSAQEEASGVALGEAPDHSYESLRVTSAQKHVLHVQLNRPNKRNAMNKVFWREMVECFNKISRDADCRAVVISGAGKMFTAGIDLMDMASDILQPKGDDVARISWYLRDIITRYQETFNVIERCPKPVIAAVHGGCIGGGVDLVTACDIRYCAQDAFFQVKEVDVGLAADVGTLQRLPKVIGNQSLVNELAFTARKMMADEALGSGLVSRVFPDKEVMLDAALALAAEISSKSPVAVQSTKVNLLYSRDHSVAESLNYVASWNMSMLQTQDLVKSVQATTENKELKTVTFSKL
UniProt Q9BVJ7: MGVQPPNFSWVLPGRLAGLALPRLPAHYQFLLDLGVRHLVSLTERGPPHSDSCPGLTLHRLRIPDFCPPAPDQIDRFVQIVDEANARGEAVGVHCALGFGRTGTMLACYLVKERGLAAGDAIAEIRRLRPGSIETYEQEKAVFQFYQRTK
UniProt Q9NP97, whole entry, looked up: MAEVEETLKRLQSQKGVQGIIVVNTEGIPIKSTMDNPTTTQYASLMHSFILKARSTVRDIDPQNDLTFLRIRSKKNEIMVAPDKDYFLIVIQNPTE
UniProt Q86TI2: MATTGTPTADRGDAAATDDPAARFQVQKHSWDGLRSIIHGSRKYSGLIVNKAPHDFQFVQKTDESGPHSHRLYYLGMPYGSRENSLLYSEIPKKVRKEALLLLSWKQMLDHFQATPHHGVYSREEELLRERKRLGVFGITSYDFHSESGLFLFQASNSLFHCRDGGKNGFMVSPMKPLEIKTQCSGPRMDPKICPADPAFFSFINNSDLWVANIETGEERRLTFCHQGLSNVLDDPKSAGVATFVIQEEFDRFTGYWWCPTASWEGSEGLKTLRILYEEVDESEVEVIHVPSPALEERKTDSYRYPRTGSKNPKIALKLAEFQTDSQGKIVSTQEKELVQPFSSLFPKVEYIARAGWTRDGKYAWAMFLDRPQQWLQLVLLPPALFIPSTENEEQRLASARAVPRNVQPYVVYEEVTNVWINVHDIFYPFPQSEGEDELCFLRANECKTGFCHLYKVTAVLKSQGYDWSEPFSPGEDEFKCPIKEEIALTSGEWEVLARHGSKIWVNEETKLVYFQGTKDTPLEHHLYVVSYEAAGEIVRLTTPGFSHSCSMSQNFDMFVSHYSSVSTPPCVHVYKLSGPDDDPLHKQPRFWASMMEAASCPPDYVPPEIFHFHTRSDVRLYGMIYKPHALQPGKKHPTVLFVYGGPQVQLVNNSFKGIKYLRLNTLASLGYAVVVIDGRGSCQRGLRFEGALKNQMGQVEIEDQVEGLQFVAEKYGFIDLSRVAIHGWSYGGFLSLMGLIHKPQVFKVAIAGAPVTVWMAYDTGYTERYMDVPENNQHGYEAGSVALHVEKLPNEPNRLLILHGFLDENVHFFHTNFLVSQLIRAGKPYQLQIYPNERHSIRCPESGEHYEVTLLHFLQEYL
UniProt P24534: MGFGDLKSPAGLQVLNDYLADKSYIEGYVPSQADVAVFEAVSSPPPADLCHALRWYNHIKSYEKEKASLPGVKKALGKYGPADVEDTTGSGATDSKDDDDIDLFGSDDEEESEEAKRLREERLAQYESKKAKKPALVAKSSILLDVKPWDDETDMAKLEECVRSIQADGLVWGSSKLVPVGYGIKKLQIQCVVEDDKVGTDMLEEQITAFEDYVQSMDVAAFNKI
UniProt P33316: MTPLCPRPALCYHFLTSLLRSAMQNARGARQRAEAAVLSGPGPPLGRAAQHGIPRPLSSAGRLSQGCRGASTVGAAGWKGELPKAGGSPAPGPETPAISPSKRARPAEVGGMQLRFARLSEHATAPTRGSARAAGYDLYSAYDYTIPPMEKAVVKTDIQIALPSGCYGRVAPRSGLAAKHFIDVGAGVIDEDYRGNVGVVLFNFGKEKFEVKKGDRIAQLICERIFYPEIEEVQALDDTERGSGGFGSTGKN
UniProt Q7L8W6: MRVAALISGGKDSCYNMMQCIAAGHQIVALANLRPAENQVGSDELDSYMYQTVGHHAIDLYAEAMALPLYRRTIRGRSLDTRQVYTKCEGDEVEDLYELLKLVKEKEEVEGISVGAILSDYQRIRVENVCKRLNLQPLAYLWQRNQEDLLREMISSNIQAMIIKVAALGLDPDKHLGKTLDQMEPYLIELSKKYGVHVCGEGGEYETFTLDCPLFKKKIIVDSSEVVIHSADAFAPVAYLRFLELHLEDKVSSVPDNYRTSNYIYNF
UniProt P51452: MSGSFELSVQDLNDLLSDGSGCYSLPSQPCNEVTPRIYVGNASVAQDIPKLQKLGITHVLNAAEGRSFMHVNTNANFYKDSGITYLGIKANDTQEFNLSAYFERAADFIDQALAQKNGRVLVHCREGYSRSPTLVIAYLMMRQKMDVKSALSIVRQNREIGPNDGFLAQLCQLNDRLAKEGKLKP
UniProt Q8N9N8: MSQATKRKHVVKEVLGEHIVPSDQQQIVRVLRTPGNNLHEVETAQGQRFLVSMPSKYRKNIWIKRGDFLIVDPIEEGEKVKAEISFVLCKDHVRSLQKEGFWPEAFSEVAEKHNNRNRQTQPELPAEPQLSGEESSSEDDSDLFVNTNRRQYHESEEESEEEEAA

Compound in one experiment: C/C(=N\NC(=O)C1=CC(=CC=C1)S(=O)(=O)N2CCOCC2)/C3=C(C=CC(=C3)Cl)O
Kind of experiment: log2 fold change, soluble protein after heating vs DMSO (PISA); higher = thermal stabilisation; K562 lysate, 10 uM; active = over 0.2 and 3.5 SD of the protein, either way, in both replicates (recomputed). The essentials:
(§1)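 Quantification was by TMTpro 16plex LC-MS/MS with equalised channel sums, applied to the supernatant after 21,000xg for 90 min. Samples were crude K562 extract at 1 mg/mL protein in PBS pH 7.4 with 1 mM MgCl2, treated with 10 μM compound for 30 min, heated for 3 min across 48°C-58°C, pooled and brought to 0.5% NP-40 at 4°C. Values are log-two fold changes in thermal stability relative to solvent controls, from duplicates.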
Take EIF1B (UniProt O60739): the log2 fold change was inactive: -0.397.
EDF1 (UniProt O60869): the log2 fold change is inactive: 0.004.
The same measure, in the same setting: with DRAP1 isoform 2 (UniProt Q14919) the figure was inactive: -0.16; with E2F4 (UniProt Q16254), inactive: -0.033.
For the target EFHD2 (UniProt Q96C19), the log2 fold change is inactive: -0.003.
Same read-out and setting: with DPP8 (UniProt Q6V1X1) the figure was inactive: 0.022.
As to DSN1 (UniProt Q9H410), the log2 fold change is inactive: 0.03.
On the same count and under the same terms, as for DUS4L (UniProt O95620), the figure is inactive: 0.02; as for EEF1E1 (UniProt O43324), inactive: -0.003.
On the same count and under the same terms, with DYM (UniProt Q7RTS9) the figure was inactive: -1.99; with EFTUD2 (UniProt Q15029), inactive: 0.007.
Same read-out and setting: with EIF2A (UniProt Q9BY44) the figure was inactive: 0.011.
Take EEF1AKMT2, A0A494BZY7: the log2 fold change is inactive: -0.408.
Still for that read-out and setting: as for DPY19L1, A0A1B0GW05, the figure is inactive: 0.033.
Same read-out and setting: as for EDEM1 (UniProt Q92611), the figure is inactive: 0.11; as for DPYSL2 (UniProt Q16555), inactive: -0.083; as for DUS3L (UniProt Q96G46), inactive: -0.001.
The same measure, in the same setting: with DSCC1 (UniProt Q9BVC3) the figure was inactive: 0.154; with EHBP1 isoform 2 (UniProt Q8NDI1), inactive: 0.133; with EDARADD (UniProt Q8WWZ3), inactive: -0.022.
Consider EFHD1 (UniProt Q9BUP0), for which the log2 fold change is inactive: 0.203.
On the same count and under the same terms, as for DTYMK (UniProt P23919), the figure is inactive: 0.025.
The same measure, in the same setting: with DYNLL2 (UniProt Q96FJ2) the figure was inactive: 0.029; with DPH7 (UniProt Q9BTV6), inactive: -0.012.
Still for that read-out and setting: as for ECH1 (UniProt Q13011), the figure is inactive: -0.049; as for DUSP23 (UniProt Q9BVJ7), inactive: 0.007; as for DYNLRB1 (UniProt Q9NP97), inactive: 0.068.
For DPP9 isoform 2 (UniProt Q86TI2), the log2 fold change is inactive: 0.03.
Still for that read-out and setting: with DPP7 (UniProt Q9UHL4) the figure was inactive: -0.091.
The same measure, in the same setting: with EEF1D isoform 2 (UniProt P29692) the figure was inactive: -0.012.
The same measure, in the same setting: with EEF1B2 (UniProt P24534) the figure was inactive: -0.016; with DUT (UniProt P33316), inactive: -0.256; with EED, A0A5F9ZI63, inactive: 0.042.
In the case of DPH6 (UniProt Q7L8W6), the log2 fold change was inactive: 0.02.
Still for that read-out and setting: as for ECT2 (UniProt Q9H8V3), the figure is inactive: 0.001; as for DUSP3 (UniProt P51452), inactive: 0.033.
Take DYNC1H1 (UniProt Q14204): the log2 fold change was inactive: 0.015.
The same measure, in the same setting: with EIF1AD (UniProt Q8N9N8) the figure was inactive: 0.005; with ECI2 (UniProt O75521), inactive: 0.01; with EBNA1BP2 (UniProt Q99848), inactive: -0.031.

Compound in a further experiment: C1=CC(=CC=C1C2=NC3=C(N2)C=C(C=C3)C(=O)N)OC4=CC=C(C=C4)Cl
The experiment is described as above. The essentials:
as §1
Regarding EIF1B (UniProt O60739), the log2 fold change was inactive: -0.153.
On the same count and under the same terms, as for EDF1 (UniProt O60869), the figure is inactive: -0.001.
Same read-out and setting: with DRAP1 isoform 2 (UniProt Q14919) the figure was inactive: 0.054; with E2F4 (UniProt Q16254), inactive: -0.054.
EFHD2 (UniProt Q96C19): the log2 fold change is inactive: 0.012.
Still for that read-out and setting: as for DPP8 (UniProt Q6V1X1), the figure is inactive: 0.077; as for DSN1 (UniProt Q9H410), inactive: 0.037; as for DUS4L (UniProt O95620), inactive: 0.023.
On to EEF1E1 (UniProt O43324), for which the log2 fold change is inactive: -0.037.
On the same count and under the same terms, with DYM (UniProt Q7RTS9) the figure was inactive: -0.081; with EFTUD2 (UniProt Q15029), inactive: 0.006.
Same read-out and setting: with EIF2A (UniProt Q9BY44) the figure was inactive: 0.03; with EEF1AKMT2, A0A494BZY7, inactive: 0; with DPY19L1, A0A1B0GW05, inactive: -0.016.
Still for that read-out and setting: as for EDEM1 (UniProt Q92611), the figure is inactive: -0.018.
Regarding DPYSL2 (UniProt Q16555), the log2 fold change is inactive: 0.006.
Same read-out and setting: as for DUS3L (UniProt Q96G46), the figure is inactive: 0.048.
Still for that read-out and setting: as for DSCC1 (UniProt Q9BVC3), the figure is inactive: -0.043; as for EHBP1 isoform 2 (UniProt Q8NDI1), inactive: 0.009; as for EDARADD (UniProt Q8WWZ3), inactive: 0.045.
Still for that read-out and setting: with EFHD1 (UniProt Q9BUP0) the figure was inactive: 0.004.
On to DTYMK (UniProt P23919), for which the log2 fold change is inactive: 0.01.
The same measure, in the same setting: as for DYNLL2 (UniProt Q96FJ2), the figure is inactive: -0.049.
As to DPH7 (UniProt Q9BTV6), the log2 fold change is inactive: -0.019.
Consider ECH1 (UniProt Q13011), for which the log2 fold change is inactive: -0.022.
Same read-out and setting: with DUSP23 (UniProt Q9BVJ7) the figure was inactive: -0.034; with DYNLRB1 (UniProt Q9NP97), inactive: 0.021; with DPP9 isoform 2 (UniProt Q86TI2), inactive: 0.024.
The same measure, in the same setting: as for DPP7 (UniProt Q9UHL4), the figure is inactive: 0.015.
The same measure, in the same setting: with EEF1D isoform 2 (UniProt P29692) the figure was inactive: 0.008; with EEF1B2 (UniProt P24534), inactive: 0.009.
Regarding DUT (UniProt P33316), the log2 fold change was inactive: 0.027.
On the same count and under the same terms, as for EED, A0A5F9ZI63, the figure is inactive: -0.033; as for DPH6 (UniProt Q7L8W6), inactive: 0.036.
On the same count and under the same terms, as for ECT2 (UniProt Q9H8V3), the figure is inactive: 0.386; as for DUSP3 (UniProt P51452), inactive: 0; as for DYNC1H1 (UniProt Q14204), inactive: 0.011.
Still for that read-out and setting: as for EIF1AD (UniProt Q8N9N8), the figure is inactive: 0.072; as for ECI2 (UniProt O75521), inactive: 0.024; as for EBNA1BP2 (UniProt Q99848), inactive: -0.03.

For the origin of these results see the supplement of paper PMC10849652.
